According to paper PMC10033410:
No constants are given. Whether binding was seen depends on the method and setting. Binding seen in cells or lysates may run through a third protein. Some results given as binding are weak or reduced against the parent protein; the word gives no strength.

Sequences of proteins named here, by UniProt entry; tags and fusion partners are left off. Residues count along the entry.
UniProt Q9HC16: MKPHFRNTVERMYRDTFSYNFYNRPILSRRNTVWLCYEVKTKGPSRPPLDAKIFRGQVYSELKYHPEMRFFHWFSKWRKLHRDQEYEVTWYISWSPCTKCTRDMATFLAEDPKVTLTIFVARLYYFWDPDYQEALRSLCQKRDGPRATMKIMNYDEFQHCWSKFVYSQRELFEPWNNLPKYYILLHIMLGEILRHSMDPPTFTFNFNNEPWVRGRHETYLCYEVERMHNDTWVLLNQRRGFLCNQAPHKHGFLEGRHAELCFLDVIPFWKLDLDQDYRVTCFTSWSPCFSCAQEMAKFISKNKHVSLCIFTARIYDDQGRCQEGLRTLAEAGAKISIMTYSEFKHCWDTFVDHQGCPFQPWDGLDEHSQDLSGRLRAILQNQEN
UniProt Q93034, residues 1-386: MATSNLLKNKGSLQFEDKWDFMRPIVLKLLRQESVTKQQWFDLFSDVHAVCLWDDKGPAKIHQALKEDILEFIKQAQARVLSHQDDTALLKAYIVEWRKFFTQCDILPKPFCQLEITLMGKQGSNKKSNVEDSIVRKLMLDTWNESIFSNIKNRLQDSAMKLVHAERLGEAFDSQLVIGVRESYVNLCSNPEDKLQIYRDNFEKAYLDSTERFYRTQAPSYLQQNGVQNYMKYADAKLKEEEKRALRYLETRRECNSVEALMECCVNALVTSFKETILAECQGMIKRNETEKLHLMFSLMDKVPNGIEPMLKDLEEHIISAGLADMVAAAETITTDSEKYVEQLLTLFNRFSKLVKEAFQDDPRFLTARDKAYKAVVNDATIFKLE

Target: human APOBEC3G (human) (UniProt Q9HC16)
Assay: pull-down

In the case of “Cullin 5 with C-terminus truncated (1–386) (from UniProt Q93034 1-386) (domain or fragment)”, the binding is reported as “binds”.
